Changes are numbered by the printed parent chain. These are yes or no findings as the source states them, for the method shown. Some entries that bind do so weakly or less than the wild type.
B1: 4382 chimeric IgG1 (antibody, V domains shown)
VH: EVQLQQSGPELVKPGASVKISCTASGYTFTDYYMNWVKQSHGKSLEWIGDINPNNGGTNYNQKWKGKATLTIHKSSSTAYMELRSLTSEDSAVYFCVPGGLRSYFDYWGQGTTLTVS
VL: DIVMTQSLKFMSASVGDRVSITCKASQDVSAAVAWYQQKPGQSPELLIYWASTRHTGVPDRFTGSGSGTDYTLTISSVQAEDLALYYCQQHYTTPPTFGGGTKLEIKR
B2: 4518 chimeric IgG1 (antibody, V domains shown)
VH: EVQLQQSGADLVKPGASVKLSCTTSGFNIKDIFIHWVKERPEQGLEWIGRIDPANDNPKYDPKFQGKATISADTSSNTAYLRLSSLTSEDTAVYYCAGGPAYFDYWGQGTTLTVS
VL: B1 VL with L8H, A13T, T22S, S30I, A34T, E45K, V78M, T93S, P96W
B3: 4385 chimeric IgG1 (antibody, V domains shown)
VH: QVTLKESGAELMKPGASVKLSCKATGYTFTGYWIEWVKQRPGHGLEWIGEILPGSGSTNYNEKFKGEATFTADTSSNTAYMHLSSLTTEDSAIYYCARWGDGSFAYWGQGTLVTVS
VL: DIVMTQSQKFMSTSVGDRVSITCKASQNVGTAVSWYQQKPGQSPKLLIFSTSNRYTGVPDRFTGSGSGTDFTLTISNMQSEDLADYFCQQYRSYPFTFGSGTKLEIKR
B4: 4785 chimeric IgG1 (antibody, V domains shown)
VH: EVQLQQSGPELVMPGASVKISCKASGYSFTSYYVHWVKQRPGQGLEWIGWIYPGSGHTKYNEKFKDKATLTADTSSSTAYMQLSSLTSEDSAVYYCARPPYYSNYADVWGTGTTVTVS
VL: DIVMTQSPSSLTVTAGEKVTMSCKSSQSLLNSGNQKNYLTWYQQKPGQPPKLLIYWASTRESGVPDRFTGSGSGTDFTLTISSVQAEDLAVYYCQSDYSYPYTFGGGTKLEIKR
B5: 5096 chimeric IgG1 (antibody, V domains shown)
VH: EVQLQQSGPELVKPGASVKMSCKASGYTFTSYLLHWVKQKPGQGLEWIGYINPYNDGAKYNEKLKGKATLTSDKSSSTAYMEVSSLTSEDSAVYYCAREGDYVRYYGMDYWGQGTSVTVS
VL: DIVLTQSPSSLAVSAGEKVTMSCKSSQSVLYISNERNYLAWYQQKPGQSPKLLIYWASTRKSGVPDRFTGSGSGTDFTLTISSVKAEDLAVYYCHQHLSSYTFGGGTKLEIKR
B6: 5082 chimeric IgG1 (antibody, V domains shown)
VH: EVQLKESGPGLVKPSQSLSLTCSVTGYSITSAYYWNWIRQFPGNKVEWMGYIGYDGRNTYNPSLKNRISITRDTSKNQFFLKLNSLTTEDTATYYCSREGDYGYSDYWGQGTTLTVS
VL: DIVMTQATSSLSASLGDRVTVSCRASQDINNYLNWYQQKPDGTVKLLIYYTSRLQSGVPSRFSGSGSGIDYSLTISNLEQEDFVTYFCQQSETLPWTFGGGTKLELKR
B7: 1024 chimeric IgG1 (antibody, V domains shown)
VH: QVQLQQPGAELVEPGGSVKLSCKASGYTFTSHWMHWVKQRPGQGLEWIGEINPSSGRNNYNEKFKSKATLTVDKSSSTAYMQFSSLTSEDSAVYYCVRYYGYDEAMDYWGQGTSVTVS
VL: DIVMTQAAFSNPVTLGTSASISCRSSKSLLHSNGITYLYWYLQKPGQSPQLLIYQMSNLASGVPDRFSSSGSGTDFTLRISRVEAEDVGVYYCAQNLELPYTFGGGTKLEIKR
B8: 992 chimeric IgG1 (antibody, V domains shown)
VH: EVQLQQPGSELVRPGASVKLSCKASGYTFTSYWMHWVKQRPGQGLEWIGNIYPGSRSTNYDEKFKSKATLTVDTSSSTAYMQLSSLTSEDSAVYYCTRNGDYYVSSGDAMDYWGQGTSVTVS
VL: DIQMTQTTSSLSASLGDRVTISCRTSQDIGNYLNWYQQKPDGTVKLLIYYTSRLHSGVPSRFSGSGSGTDFSLTINNVEQEDVATYFCQHYNTVPPTFGGGTKLEIKR
B9: 1030 chimeric IgG1 (antibody, V domains shown)
VH: EVQLVESGGGLVKPGGSLKLSCAASGFTFSSYALSWVRQTPERRLEWVASISGVGSTYFPDSVKGRFTMSRDNARNILYLQMSSLRSEDTAMYYCARGSDGYFYAMDYWGQGTSVTVS
VL: DIVLTQSPASLAVSLGQRATISCRASKSVSTSGYSFMHWYQLKPGQPPKLLIYLASNLESGVPARFSGSGSGTDFTLNIHPVEEEDAATYYCQHSREFPLTFGGGTKLEIKR

target: HER2 (UniProt P04626); experiment: SPR epitope analysis

binding	Binder
binds	B1
binds	B2
binds	B3

target: HER3 (UniProt P21860); experiment: SPR epitope analysis

binding	Binder
binds	B4
binds	B5
binds	B6

target: EGFR (UniProt P00533); experiment: SPR epitope analysis

binding	Binder
binds	B7
binds	B8
binds	B9

— patent publication US9155802
